Literature values, collected in PMC7470163, “Effects of ticagrelor on the pharmacokinetics of rivaroxaban in rats” (Pharmaceutical Biology, 2020).

Conditions: co-administration of ticagrelor; ref Teng et al. [2013]; cited from earlier work

CC(C)c1c(C(=O)Nc2ccccc2)c(-c2ccccc2)c(-c2ccc(F)cc2)n1CC[C@@H](O)C[C@@H](O)CC(=O)O [atorvastatin]
increase of AUC: 36%
increase of Cmax: 23%
